This passage reports Weight of liver results from patent US9949961B2, “Agent for the prophylaxis and/or treatment of neoplastic diseases” (priority 2013, dated 2018).

The series concerns hepatic tumors induced by DENA. The experiment in a line: Preventive effect on hepatic neoplasms induced by N-diethyl nitrosamine (DENA) in rats. Type of series: in vivo, male Wistar rats. To be noted: 25 mg/kg/day in drinking water; DENA 30 mg/kg/week i.p.; at autopsy. Here is the method:
The efficacy of preventive effects of Products 1 and 2 in relation to hepatic neoplasms was shown in the experiment on male Wistar rats which were intraperitoneally administered with chemical carcinogen-N-diethyl nitrosamine (DENA) (Nitrosodiethylamin (N—N)). The nature of the invention is explained with the execution example.
To solve the task, 3 groups of male Wistar rats weighing 150-200 g were formed, 16 in each. Rats of the control group were administered intraperitoneally with DENA in dose 30 mg/kg/week. The dosage was administered in 2 doses: Monday and Thursday. The animals of test groups were similarly administered with DENA. Rats of test groups took drinking water in addition to Products 1 and 2 assuming that they took 25 mg/kg of body weight/day with water. The animals started taking the products 3 weeks prior administration of N-diethyl nitrosamine to develop protective background in animal body and subsequently for 2.5 months.
During the experiment, weight of rats was controlled. After autopsy of animals, liver was weighted, tumors were visually counted on its surface and photographed.

`O=C1CSC(=S)N1CCc1ccccc1` [Product 1] registered a Weight of liver of 7.4 ± 0.19 g.

In turn, `O=C1CSC(=S)N1CCc1ccncc1` [Product 2] displayed a Weight of liver of 7.0 ± 0.15 g.
